Earlier results, collected in patent US9440985B2, “Tricyclic derivatives of N,N′-substituted 3,7-diazabicyclo [3.3.1]nonanes and drugs based thereon” (priority 2011, dated 2016).
At least one structure is not confirmed: it was looked up by name or label, or the drawing left a doubt.

Assays:
[1] = in vivo
[2] = test system: human patients; conditions: supplementary to antipsychotics in schizophrenia

In the case of O=C(c1ccc2nccnc2c1)N1CCCCC1 [CX516], the “cognitive status in schizophrenia” value [1] is listed as “improvement in cognitive status” and the “general condition and cognitive status compared with placebo” value [2] is listed as “did not observe a significant improvement”.
